# In the supplement of paper PMC7661543:
# ± gives the standard deviation of the averaged measurements. Differences between knockout arms are mostly noise. Where a SMILES comes first, the peptide text is derived from it. The star is where a group is joined. Cbz = O=C(OCc1ccccc1)*
# Tested on: ZR-75-1
# Assay: relative cell number vs DMSO control (72 h) (% of DMSO); higher = less growth inhibition (more cells)
# Method: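 QMAP-Seq: a pool of 5 breast cancer cell lines (ZR-75-1, SKBR3, HCC-38, MDA-MB-231, BT-20), each carrying 12 doxycycline-inducible Cas9 sgRNA perturbations (11 knockouts plus non-targeting sgNT), was treated with compounds for 72 h at four 10-fold doses (10 nM-10 uM or 1 nM-1 uM range). Barcodes were amplified and sequenced, and cell number was interpolated from 293T spike-in standard curves. The result is expressed as % of the median of DMSO wells. Two biological replicates.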
# [1] = sgRNA knockout: sgATF3, 1000 nM
# [2] = sgRNA knockout: sgATF3, 10000 nM
# [3] = sgRNA knockout: sgATF4, 1000 nM
# [4] = sgRNA knockout: sgATF4, 10000 nM
# [5] = sgRNA knockout: sgATF6, 1000 nM
# [6] = sgRNA knockout: sgATF6, 10000 nM
# [7] = sgRNA knockout: sgATG7, 1000 nM
# [8] = sgRNA knockout: sgATG7, 10000 nM
# [9] = sgRNA knockout: sgERN1, 1000 nM
# [10] = sgRNA knockout: sgERN1, 10000 nM
# [11] = sgRNA knockout: sgHSF2, 1000 nM
# [12] = sgRNA knockout: sgHSF2, 10000 nM
# [13] = sgRNA knockout: sgNFE2L2, 10 nM
# [14] = sgRNA knockout: sgNFE2L2, 100 nM
# [15] = sgRNA knockout: sgNFE2L2, 1000 nM
# [16] = sgRNA knockout: sgNFE2L2, 10000 nM
# [17] = sgRNA knockout: sgSLC35F2, 10 nM
# [18] = sgRNA knockout: sgSLC35F2, 100 nM
# [19] = sgRNA knockout: sgSLC35F2, 1000 nM
# [20] = sgRNA knockout: sgSLC35F2, 10000 nM
# [21] = sgRNA knockout: sgXBP1, 1000 nM
# [22] = sgRNA knockout: sgXBP1, 10000 nM
Structure (SMILES),"relative cell number (sgRNA knockout: sgATF3, 10 nM)","relative cell number (sgRNA knockout: sgATF3, 100 nM)",relative cell number [1],relative cell number [2],"relative cell number (sgRNA knockout: sgATF4, 10 nM)","relative cell number (sgRNA knockout: sgATF4, 100 nM)",relative cell number [3],relative cell number [4],"relative cell number (sgRNA knockout: sgATF6, 10 nM)","relative cell number (sgRNA knockout: sgATF6, 100 nM)",relative cell number [5],relative cell number [6],"relative cell number (sgRNA knockout: sgATG7, 10 nM)","relative cell number (sgRNA knockout: sgATG7, 100 nM)",relative cell number [7],relative cell number [8],"relative cell number (sgRNA knockout: sgERN1, 10 nM)","relative cell number (sgRNA knockout: sgERN1, 100 nM)",relative cell number [9],relative cell number [10],"relative cell number (sgRNA knockout: sgHSF2, 10 nM)","relative cell number (sgRNA knockout: sgHSF2, 100 nM)",relative cell number [11],relative cell number [12],relative cell number [13],relative cell number [14],relative cell number [15],relative cell number [16],relative cell number [17],relative cell number [18],relative cell number [19],relative cell number [20],"relative cell number (sgRNA knockout: sgXBP1, 10 nM)","relative cell number (sgRNA knockout: sgXBP1, 100 nM)",relative cell number [21],relative cell number [22]
CC[C@H](C)C(=O)O[C@H]1C[C@@H](C)C=C2C=C[C@H](C)[C@H](CC[C@@H]3C[C@@H](O)CC(=O)O3)[C@H]21 [Lovastatin],137 ± 22,83.6 ± 2.8,81.7 ± 2.5,78.6 ± 14,125 ± 24,80 ± 0.32,147 ± 61,71.5 ± 20,130 ± 4.4,129 ± 61,100 ± 3.2,87.4 ± 2,99.2 ± 13,82.1 ± 23,87.2 ± 30,72.9 ± 32,81.2 ± 4.5,83.8 ± 22,85.6 ± 18,78.1 ± 13,102 ± 17,89.2 ± 3,87.5 ± 5.7,66.1 ± 3,99.7 ± 51,83.3 ± 11,104 ± 6.1,78 ± 14,166 ± 84,81.9 ± 16,131 ± 26,44.6 ± 16,95.3 ± 16,85 ± 16,92.5 ± 2.7,76 ± 15
CC(C)C[C@@H](C=O)NC(=O)[C@H](CC(C)C)NC(=O)[C@H](CC(C)C)NC(=O)OCc1ccccc1 [MG132] (Cbz-Leu-Leu-Leu-aldehyde),103 ± 14,103 ± 28,28.8 ± 12,11.4 ± 3.6,64.1 ± 18,101 ± 20,34.4 ± 12,5.7 ± 3.7,89.7 ± 43,67.7 ± 9.3,36.7 ± 7.6,10.2 ± 5.1,78.37 ± 0.65,131 ± 26,24.8 ± 1.5,11.5 ± 1.6,108 ± 21,121 ± 19,32.3 ± 6.9,11 ± 0.72,113.2 ± 1.1,129 ± 23,27 ± 12,8.95 ± 0.53,107.2 ± 0.38,96.6 ± 37,25.4 ± 6.2,10.4 ± 0.86,88 ± 17,109 ± 16,15.2 ± 3.4,5.34 ± 4.5,80.8 ± 19,107.2 ± 0.13,23.9 ± 2.5,9.53 ± 0.51
O=C(O)CC[C@H]1CC[C@@](c2cc(F)ccc2F)(S(=O)(=O)c2ccc(Cl)cc2)CC1 [MK0752],139 ± 67,125 ± 12,124 ± 10,120 ± 34,165 ± 49,111.9 ± 1,133 ± 24,130 ± 4.9,108 ± 18,112 ± 9.9,132 ± 9,105 ± 24,137 ± 74,103 ± 33,119 ± 5.5,101 ± 19,120 ± 33,112 ± 22,112 ± 5,96.98 ± 0.19,141 ± 43,108 ± 7.7,126 ± 1.7,117 ± 27,147 ± 28,131 ± 14,130 ± 48,108 ± 1.6,172 ± 29,131 ± 36,123 ± 13,156 ± 43,119 ± 44,110 ± 1.9,124 ± 2.7,92.6 ± 18
C=CCn1c(=O)c2cnc(Nc3ccc(N4CCN(C)CC4)cc3)nc2n1-c1cccc(C(C)(C)O)n1 [MK1775],105 ± 2.5,95.8 ± 12,82.1 ± 7.5,29.8 ± 0.74,101 ± 35,87.3 ± 13,91.2 ± 11,26.9 ± 10,78.8 ± 33,87.1 ± 24,71.8 ± 13,16.3 ± 9,83.4 ± 14,89.1 ± 11,62.3 ± 32,27.8 ± 14,113.5 ± 0.47,86.1 ± 8.3,87.4 ± 23,31.8 ± 11,97 ± 8.6,102 ± 13,65.6 ± 6.7,27.7 ± 3.1,109 ± 16,78.5 ± 24,83.7 ± 34,20.8 ± 5.6,70.9 ± 13,96.3 ± 4.5,42.7 ± 5.7,14.7 ± 0.44,103 ± 6.7,88.3 ± 11,88.4 ± 8.1,27 ± 1.9
CN(Cc1cnc2nc(N)nc(N)c2n1)c1ccc(C(=O)N[C@@H](CCC(=O)O)C(=O)O)cc1 [Methotrexate],93.2 ± 5.2,59.7 ± 5.7,37.5 ± 5.1,27.9 ± 3.4,114 ± 22,60 ± 37,52.9 ± 4,54.3 ± 2,104 ± 1.8,45.5 ± 19,33.3 ± 0.45,41.8 ± 27,103 ± 23,65.5 ± 16,30.9 ± 0.73,41.2 ± 19,113 ± 3.8,55.4 ± 9.4,56.2 ± 9.1,39.1 ± 6.5,103 ± 20,54.8 ± 11,38.9 ± 0.52,30.8 ± 3.1,95.6 ± 34,57.7 ± 18,44.4 ± 1.6,34 ± 12,108 ± 20,67.6 ± 37,45.4 ± 13,52.4 ± 7.3,92.9 ± 18,49.2 ± 6.3,42.6 ± 6.1,35.9 ± 1.7
CC1(C)CCC(c2ccc(Cl)cc2)=C(CN2CCN(c3ccc(C(=O)NS(=O)(=O)c4ccc(N[C@H](CCN5CCOCC5)CSc5ccccc5)c(S(=O)(=O)C(F)(F)F)c4)cc3)CC2)C1 [Navitoclax],106 ± 31,117 ± 29,102 ± 19,82.3 ± 9.3,116 ± 66,149 ± 49,143 ± 26,76.3 ± 34,91 ± 18,129 ± 28,105 ± 18,67.2 ± 42,84 ± 41,160 ± 53,78.2 ± 46,80.3 ± 25,86.6 ± 13,90.8 ± 0.7,87.6 ± 15,88.8 ± 27,96.3 ± 16,128 ± 20,92 ± 8.8,81.4 ± 3.3,94.2 ± 7.1,105 ± 12,117 ± 32,89.71 ± 0.54,71.8 ± 34,141 ± 40,72.5 ± 2,52.7 ± 6.5,97.48 ± 0.81,93.91 ± 0.79,111 ± 10,78.8 ± 15
COc1nc(N)nc2c1ncn2[C@@H]1O[C@H](CO)[C@@H](O)[C@@H]1O [Nelarabine],136.1 ± 0.75,84 ± 50,106 ± 30,84.2 ± 6.1,127 ± 3.2,101 ± 15,97.2 ± 26,99.4 ± 18,72.8 ± 22,111 ± 39,82.9 ± 13,91 ± 29,85.8 ± 17,99.5 ± 10,101 ± 3.5,104 ± 9.8,108 ± 17,105 ± 4.1,93.5 ± 17,73.6 ± 17,115 ± 6.9,105 ± 14,102 ± 28,92.7 ± 13,97.5 ± 6.4,126 ± 3.8,102 ± 30,132 ± 37,139 ± 2.5,66.5 ± 7,147 ± 27,96.5 ± 64,117 ± 1.9,116 ± 7.6,92.8 ± 12,127 ± 58
Cc1ncc([N+](=O)[O-])n1CC(O)CCl (stereo not given) [Ornidazole],106 ± 12,98.5 ± 29,134 ± 74,96.3 ± 19,104 ± 23,101 ± 18,81.7 ± 18,116 ± 13,110 ± 34,97.9 ± 55,80.1 ± 9.6,74.9 ± 24,71.5 ± 25,92.9 ± 19,96.8 ± 33,114 ± 4.6,83 ± 4.7,87.7 ± 2.9,89 ± 7.7,87.8 ± 7.5,81.7 ± 1.9,87.2 ± 17,105 ± 5.3,99.3 ± 2.5,90.9 ± 4.1,102 ± 24,109 ± 6,90.6 ± 9.9,87.5 ± 50,89.4 ± 42,80.7 ± 61,82.6 ± 14,82.5 ± 0.85,89.9 ± 8.2,96.9 ± 15,92 ± 7.2
CC(=O)Nc1nc(C)c(-c2ccc(Cl)c(S(=O)(=O)NCCO)c2)s1 [PIK93],129 ± 11,127 ± 8.3,81.3 ± 20,63.5 ± 8.1,109 ± 6,92.6 ± 9.2,80.3 ± 34,58 ± 13,110 ± 2.7,78.9 ± 12,74.3 ± 13,53.4 ± 2.7,78.8 ± 18,90.2 ± 3.6,72.4 ± 9.3,72.5 ± 16,93 ± 15,119 ± 18,88.9 ± 13,73.14 ± 0.25,99.6 ± 26,116.2 ± 1.1,85.3 ± 6.4,60.8 ± 20,87.7 ± 7.1,124 ± 8.2,89.7 ± 7.3,76.5 ± 9.9,145 ± 49,61.8 ± 23,58.2 ± 6.7,84.9 ± 38,107 ± 21,124 ± 15,85.58 ± 0.47,74.3 ± 7.8
CCC(C)SSc1ncc[nH]1 (stereo not given) [PX12],153 ± 23,109 ± 2.7,117 ± 6.2,82.9 ± 19,80.8 ± 35,145 ± 22,108 ± 24,89.7 ± 16,143 ± 2.5,87.9 ± 68,106 ± 30,52.6 ± 13,111 ± 32,102 ± 55,108 ± 1.2,49.2 ± 0.98,129 ± 24,101 ± 9.5,105 ± 22,68.2 ± 15,112 ± 2.3,116 ± 30,107 ± 1.5,60.2 ± 3,122 ± 33,126 ± 12,107 ± 35,63.1 ± 27,141 ± 42,160 ± 1.9,113 ± 19,50.8 ± 36,115 ± 28,115 ± 6.5,109 ± 8.1,79.8 ± 3.4
